# From PubChem BioAssay (EPA / NIEHS)
# The chains behind the UniProt entries cited, without tags or fusion partners. Where a name states a change or a piece, a line headed by the entry shows the natural chain unless it says otherwise.
# UniProt Q92731, whole entry, looked up: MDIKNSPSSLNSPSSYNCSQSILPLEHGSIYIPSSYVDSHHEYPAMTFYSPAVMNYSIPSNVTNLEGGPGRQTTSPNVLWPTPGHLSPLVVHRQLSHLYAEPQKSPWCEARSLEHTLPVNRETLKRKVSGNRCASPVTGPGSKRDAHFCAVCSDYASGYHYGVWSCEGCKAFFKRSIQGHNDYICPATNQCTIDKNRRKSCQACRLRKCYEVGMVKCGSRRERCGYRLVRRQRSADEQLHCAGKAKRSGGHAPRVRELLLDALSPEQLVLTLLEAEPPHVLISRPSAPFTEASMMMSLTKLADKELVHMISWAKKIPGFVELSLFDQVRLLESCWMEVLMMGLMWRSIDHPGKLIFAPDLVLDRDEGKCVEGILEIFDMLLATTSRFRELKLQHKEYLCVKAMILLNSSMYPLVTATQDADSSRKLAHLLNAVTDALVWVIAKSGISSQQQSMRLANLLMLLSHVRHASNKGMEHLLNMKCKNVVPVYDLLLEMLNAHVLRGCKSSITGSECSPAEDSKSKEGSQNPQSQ
# UniProt P03372, whole entry, looked up: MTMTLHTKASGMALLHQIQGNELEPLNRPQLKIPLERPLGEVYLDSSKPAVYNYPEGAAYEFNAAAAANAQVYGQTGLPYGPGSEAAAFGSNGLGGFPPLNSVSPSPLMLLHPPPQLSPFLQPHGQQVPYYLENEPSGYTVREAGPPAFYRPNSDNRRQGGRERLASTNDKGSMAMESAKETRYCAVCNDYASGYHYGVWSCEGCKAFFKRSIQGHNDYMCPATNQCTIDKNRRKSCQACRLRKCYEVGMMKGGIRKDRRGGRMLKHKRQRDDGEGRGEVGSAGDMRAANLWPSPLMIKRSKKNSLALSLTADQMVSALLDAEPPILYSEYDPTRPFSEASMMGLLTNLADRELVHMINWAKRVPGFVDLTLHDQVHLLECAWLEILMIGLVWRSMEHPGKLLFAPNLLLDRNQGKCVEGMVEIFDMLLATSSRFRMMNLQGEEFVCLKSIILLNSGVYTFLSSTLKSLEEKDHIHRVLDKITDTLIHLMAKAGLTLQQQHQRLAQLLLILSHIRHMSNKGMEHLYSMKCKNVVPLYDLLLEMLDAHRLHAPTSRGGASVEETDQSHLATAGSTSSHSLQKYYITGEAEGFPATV
# UniProt P19785, whole entry, looked up: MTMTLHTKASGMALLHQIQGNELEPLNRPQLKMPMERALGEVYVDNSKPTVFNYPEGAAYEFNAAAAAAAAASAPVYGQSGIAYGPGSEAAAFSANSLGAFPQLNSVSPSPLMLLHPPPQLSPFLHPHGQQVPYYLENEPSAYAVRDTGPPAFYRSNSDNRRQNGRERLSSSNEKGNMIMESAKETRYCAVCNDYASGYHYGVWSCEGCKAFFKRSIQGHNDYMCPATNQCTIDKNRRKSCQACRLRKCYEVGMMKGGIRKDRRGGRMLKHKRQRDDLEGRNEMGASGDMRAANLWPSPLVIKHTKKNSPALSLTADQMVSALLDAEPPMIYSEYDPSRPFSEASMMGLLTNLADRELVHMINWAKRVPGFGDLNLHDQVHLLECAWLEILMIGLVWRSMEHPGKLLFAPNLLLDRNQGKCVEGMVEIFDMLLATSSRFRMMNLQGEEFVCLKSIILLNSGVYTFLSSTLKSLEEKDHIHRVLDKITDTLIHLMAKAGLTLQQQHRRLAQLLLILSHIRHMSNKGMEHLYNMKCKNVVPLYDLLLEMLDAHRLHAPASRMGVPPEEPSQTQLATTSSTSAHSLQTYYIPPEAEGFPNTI
# UniProt P19793: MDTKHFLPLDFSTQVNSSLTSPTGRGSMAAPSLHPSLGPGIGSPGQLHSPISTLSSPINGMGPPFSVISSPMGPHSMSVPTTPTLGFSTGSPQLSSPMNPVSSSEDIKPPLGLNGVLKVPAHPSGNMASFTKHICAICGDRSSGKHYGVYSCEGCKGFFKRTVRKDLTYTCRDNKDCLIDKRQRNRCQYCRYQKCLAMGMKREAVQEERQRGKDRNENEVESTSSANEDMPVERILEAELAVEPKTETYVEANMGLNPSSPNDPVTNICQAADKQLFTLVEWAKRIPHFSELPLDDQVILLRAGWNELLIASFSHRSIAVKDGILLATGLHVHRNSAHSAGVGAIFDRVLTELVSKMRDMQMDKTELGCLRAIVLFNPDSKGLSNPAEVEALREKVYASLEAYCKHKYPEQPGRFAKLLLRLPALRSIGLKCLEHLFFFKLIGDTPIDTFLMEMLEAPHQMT
# UniProt P04637, whole entry, looked up: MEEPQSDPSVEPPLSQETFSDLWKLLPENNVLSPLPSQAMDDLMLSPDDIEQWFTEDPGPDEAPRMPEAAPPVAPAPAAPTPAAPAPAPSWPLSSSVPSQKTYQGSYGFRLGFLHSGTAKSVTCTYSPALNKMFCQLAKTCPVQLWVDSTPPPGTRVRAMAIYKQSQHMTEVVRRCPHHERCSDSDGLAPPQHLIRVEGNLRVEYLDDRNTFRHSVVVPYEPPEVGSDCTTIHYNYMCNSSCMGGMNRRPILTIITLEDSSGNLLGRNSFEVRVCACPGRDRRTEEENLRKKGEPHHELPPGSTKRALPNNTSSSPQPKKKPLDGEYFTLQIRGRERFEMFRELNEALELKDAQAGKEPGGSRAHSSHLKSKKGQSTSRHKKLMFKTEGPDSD
# UniProt P37231: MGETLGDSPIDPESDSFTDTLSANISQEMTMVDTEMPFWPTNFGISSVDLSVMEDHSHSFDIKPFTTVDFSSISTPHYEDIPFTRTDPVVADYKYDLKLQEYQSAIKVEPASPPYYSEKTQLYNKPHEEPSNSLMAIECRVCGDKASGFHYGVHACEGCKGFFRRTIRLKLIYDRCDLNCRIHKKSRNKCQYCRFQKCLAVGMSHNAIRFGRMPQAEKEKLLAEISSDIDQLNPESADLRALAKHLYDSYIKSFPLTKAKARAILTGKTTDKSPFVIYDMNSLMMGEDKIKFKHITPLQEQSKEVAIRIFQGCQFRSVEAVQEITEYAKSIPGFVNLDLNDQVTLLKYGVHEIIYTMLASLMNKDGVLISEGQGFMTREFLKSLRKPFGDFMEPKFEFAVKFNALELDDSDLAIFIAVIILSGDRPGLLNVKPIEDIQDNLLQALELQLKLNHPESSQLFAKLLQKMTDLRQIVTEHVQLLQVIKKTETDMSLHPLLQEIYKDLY
# “And” between values parts separate entries of the source, which are not always exact repeats. Equal entries are not always repeated. Inconclusive results, whose numbers are uncertain, are shown with a selection of clear calls. For some assays here: Where the call is inconclusive, the potency comes from a doubtful curve fit. The source holds several records for some structures; these can differ, active in one and inactive in another. The source made the active and inactive calls. The calls were made as follows: active = hit-call score of the fitted dose curve at least 0.9, where 1 is the maximum; inconclusive = response in the unintended direction; inactive = score below 0.9.
# Assays:
# [1] = target: Estrogen receptor beta (Homo sapiens) (UniProt Q92731); assay: OT_ER_ERbERb_1440: Odyssey Thera (OT) 24-hour HEK293T Protein-Complementation Assay for Estrogen Receptor-beta/-beta Homodimer (AID 2283380);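 also: fluorescence gain from ER beta LBD homodimer complementation read by laser scanning cytometry; scored as signal increase over DMSO baseline for both agonists and antagonists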
# Summary of the method: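 Fluorescence increase, nuclear for agonists or whole-cell for antagonists, relative to DMSO vehicle, quantified by laser scanning cytometer after fixation and Draq5 staining. Readout from 24 h treatment of HEK293T cells carrying complementation-paired ER beta LBD (aa 310-547).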
# [2] = target: Estrogen receptor (Homo sapiens) (UniProt P03372); assay: OT_ERa_GFPERaERE_0120: Odyssey Thera (OT) 2-hour HeLa Transcription Induction Assay for Estrogen Receptor (AID 2283382)
# Summary of the method: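 HeLa cells were dosed with test chemical and read 2 hours later for GFP-ERα/ERE-linked fluorescent protein induction by fluorescence microscopy. Gain-of-signal was fitted relative to DMSO baseline, quantified by high content image analysis.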
# [3] = LTEA_HepaRG_LDH_cytotoxicity: Cytotoxicity Assessment in the Life Technologies and Expression Analysis (LTEA) Assay (AID 2283563);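 also: LDH activity released into spent culture medium as a marker of cell death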
# Summary of the method: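 Differentiated human HepaRG cells, plated 48 h beforehand, were switched to serum-free induction medium and exposed for 48 h to eight half-log concentrations (top 100 uM) in 0.5% DMSO. LDH was measured in spent medium; activity was fitted relative to DMSO vehicle.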
# [4] = target: mouse Estrogen Receptor alpha (Era), Esr1 (gene 13982) (UniProt P19785); assay: NVS_NR_mERa: NovaScreen (NVS) Nuclear Receptor Binding Assay for mouse Estrogen Receptor alpha (Era) (AID 2283378);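 also: hit means loss of bound radioligand signal relative to DMSO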
# Summary of the method: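 Cell-free radioligand binding with extracted mouse Era protein; competitive displacement of radiolabelled ligand, read by filter-based scintillation counting 18 hours after dosing. Loss of signal versus DMSO baseline taken as binding; single screening concentration 25 uM, actives followed in concentration series.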
# [5] = target: Retinoic acid receptor RXR-alpha (Homo sapiens) (UniProt P19793); assay: OT_NURR1_NURR1RXRa_0480: Odyssey Thera (OT) 8-hour HEK293T Protein Complementation Assay for Nurr1/retinoid X receptor (RXR) (AID 2283385)
# Summary of the method: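 HEK293T cells expressing Nurr1 and RXRα fused to reporter fragments were dosed with compound for 8 hours. Complex formation was read as fluorescence intensity and analysed as gain of signal against DMSO as baseline.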
# [6] = target: Retinoic acid receptor RXR-alpha (Homo sapiens) (UniProt P19793); assay: OT_NURR1_NURR1RXRa_1440: Odyssey Thera (OT) 24-hour HEK293T Protein Complementation Assay for Nurr1/retinoid X receptor (RXR) (AID 2283386)
# Summary of the method: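 HEK293T cells were dosed with compound and read 24 h later by fluorescence intensity in a protein-fragment complementation format, where Nurr1–RXRα interaction reconstitutes a split reporter. Activity was fitted as gain of signal relative to DMSO baseline.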
# [7] = ATG_XTT_Cytotoxicity: Cytotoxicity Assessment in the Attagene TRANS-FACTORIAL HepG2 Assay (AID 2283584);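 as to AC50: cells exposed to compound for 24 h before reading; active means loss of viability signal versus DMSO baseline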
# Summary of the method: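 HepG2 human liver cells, transiently transfected with multiple GAL4-UAS reporter units, were dosed and read at 24 h by XTT as cell number. Loss of signal was fitted relative to DMSO negative control baseline.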
# [8] = TOX21_p53_BLA_p5_viability: Viability Assessment in the Tox21 HCT-116 p53 Agonism Beta-lactamase Assay, Phase 5 (AID 2283600)
# Summary of the method: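 Cells were plated at 4000/well, rested 5 h at 37C, then given compounds in DMSO (217-fold dilution) for 16 h at 37C, 5% CO2. Following the CCF4-AM beta-lactamase read, CellTiter-Glo was added and luminescence was read after 30 min at room temperature.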
# [9] = TOX21_p53_BLA_p2_viability: Viability Assessment in the Tox21 HCT-116 p53 Agonism Beta-lactamase Assay, Phase 2 (AID 2283591);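 also: compound exposure lasted 16 h at 37 °C; actives lower the ATP signal meaning cytotoxicity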
# Summary of the method: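 Cytotoxicity readout: CellTiter-Glo ATP luminescence, 30 min at room temperature, after the beta-lactamase read. Cells were HCT116 exposed 16 h at 37C to compounds pin-transferred at 217-fold dilution from DMSO stocks.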
# [10] = target: Cellular tumor antigen p53 (Homo sapiens) (UniProt P04637); assay: TOX21_p53_BLA_p2_ratio: Tox21 HCT-116 p53 Agonism Beta-lactamase Assay, Ratio, Phase 2 (AID 2283592)
# Summary of the method: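 HCT116 cells carrying a p53-responsive beta-lactamase reporter were plated, incubated 5 h at 37C, then dosed with compounds in DMSO (217-fold dilution) for 16 h. CCF4-AM substrate was added for 2 h at room temperature; the 460/530 nm emission ratio gave gain-of-signal activity relative to DMSO.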
# [11] = target: Cellular tumor antigen p53 (Homo sapiens) (UniProt P04637); assay: TOX21_p53_BLA_p3_ratio: Tox21 HCT-116 p53 Agonism Beta-lactamase Assay, Ratio, Phase 3 (AID 2283596)
# Summary of the method: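 HCT116 p53-bla cells (4000/well) given compound in DMSO (217-fold dilution) after 5 h, incubated 16 h at 37C. CCF4-AM substrate 2 h at room temperature; 460/530 nm emission ratio, gain fitted against DMSO.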
# [12] = target: Cellular tumor antigen p53 (Homo sapiens) (UniProt P04637); assay: TOX21_p53_BLA_p4_ratio: Tox21 HCT-116 p53 Agonism Beta-lactamase Assay, Ratio, Phase 4 (AID 2283601)
# Summary of the method: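 Signal is the blue/green (460nm/530nm) ratio of cleaved versus uncleaved CCF4-AM substrate, read after 2 h substrate loading. Cells were HCT116 carrying the p53-responsive beta-lactamase reporter, dosed 16 h at 37C, 5% CO2; CellTiter-Glo measured in parallel.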
# [13] = target: Peroxisome proliferator-activated receptor gamma (Homo sapiens) (UniProt P37231); assay: OT_PPARg_PPARgSRC1_0480: Odyssey Thera (OT) 8-hour Protein-Complementation Assay for Peroxisome Proliferator-activated Receptor Gamma / SRC-1 Co-activator (AID 2283387);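 also: nuclear to cytoplasmic split Venus YFP fluorescence ratio reporting PPARg SRC-1 interaction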
# Summary of the method: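 HEK293T transiently transfected with PPARg and SRC-1 fused to Venus YFP fragments, compounds 8 h at 37C. Fixed, Draq5-stained cells imaged; nuclear/cytoplasmic 488 nm fluorescence ratio over at least 350 cells per image; gain fitted versus DMSO.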
# [14] = target: Cellular tumor antigen p53 (Homo sapiens) (UniProt P04637); assay: TOX21_p53_BLA_p5_ratio: Tox21 HCT-116 p53 Agonism Beta-lactamase Assay, Ratio, Phase 5 (AID 2283599)
# Summary of the method: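 Beta-lactamase reporter ratio (blue 460 nm over green 530 nm, 405 nm excitation) after 2 h CCF4-AM loading, in HCT-116 cells exposed 16 h at 37 C to compounds pinned at 217-fold dilution. Increases relative to DMSO baseline scored.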
# [15] = TOX21_p53_BLA_p4_viability: Viability Assessment in the Tox21 HCT-116 p53 Agonism Beta-lactamase Assay, Phase 4 (AID 2283597);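 also: hits lower the luminescence signal meaning cytotoxicity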
# Summary of the method: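 HCT116 p53-bla cells (4000/well) rested 5 h at 37C, then received compounds in DMSO (217-fold dilution) for 16 h at 37C, 5% CO2. CellTiter-Glo was added after the CCF4-AM read, and luminescence was read after 30 min at room temperature.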
# [16] = TOX21_p53_BLA_p3_viability: Viability Assessment in the Tox21 HCT-116 p53 Agonism Beta-lactamase Assay, Phase 3 (AID 2283593);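 also: cells exposed to compound for 16 h before reading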
# Summary of the method: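 Cellular ATP was quantified by CellTiter-Glo luminescence, read after 30 min at room temperature. Beforehand, HCT116 cells (4000/well) received compound 5 h post-seeding, 217-fold diluted from DMSO, then incubated 16 h at 37C.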
smiles,measurement,setting,value
CC(C)N1C(=O)N(c2ccccc2)CSC1=NC(C)(C)C,AC50,[1],active: 27.7 µM
CCCCCCCCCC[N+](C)(C)CCCCCCCCCC,AC50,[1],inconclusive: 50 µM
CCC[CH2][Sn]([CH2]CCC)([CH2]CCC)[O]C(=O)c1ccccc1,AC50,[2],inconclusive: 50 µM
CC(C)(c1ccccc1)c1ccc(O)c(C(C)(C)c2ccccc2)c1,AC50,[3],active: 72.2 µM
CC(C)N(C(=O)CCl)c1ccccc1,AC50,[4],active: 6.48 µM
same,AC50,[5],inconclusive: 82 µM
same,AC50,[6],inconclusive: 11.3 µM
same,AC50,[7],active: 31.2 µM
ClC1=C(Cl)[C@]2(Cl)[C@@H]3[C@@H]4C[C@@H]([C@H]5O[C@@H]45)[C@@H]3[C@@]1(Cl)C2(Cl)Cl,AC50,[4],inconclusive: 41.2 µM and inconclusive: 7.07 µM
same,AC50,[5],active: 77.7 µM and active: 81.5 µM
same,outcome,[7],inactive
same,outcome,[8],inactive
c1ccc(P(c2ccccc2)c2ccccc2)cc1,AC50,[4],inconclusive: 25 µM
same,AC50,[9],inconclusive: 46.8 µM
same,outcome,[9],inactive
same,AC50,[10],inconclusive: 46.1 µM and inconclusive: 46.8 µM
same,AC50,[11],inconclusive: 81.6 µM and inconclusive: 88.7 µM
same,AC50,[8],inconclusive: 46.1 µM
same,outcome,[8],inactive
same,AC50,[12],inconclusive: 46.1 µM and inconclusive: 34.9 µM
CC1(C)CCC(=Cc2ccc(Cl)cc2)C1(O)Cn1cncn1 (centres undefined),outcome,[4],inactive
same,AC50,[5],inconclusive: 31.8 µM and inconclusive: 9.87 µM
same,AC50,[6],inconclusive: 14.4 µM
same,outcome,[6],inactive
same,AC50,[13],inconclusive: 49.8 µM
same,AC50,[7],inconclusive: 100 µM
same,outcome,[11],inactive
same,outcome,[14],inactive
C[C@]12CC[C@H](O)CC1=CC[C@@H]1[C@@H]2CC[C@]2(C)C(=O)CC[C@@H]12,AC50,[4],active: 2.17 µM
same,AC50,[13],inconclusive: 85.4 µM
ClCC(Cl)CCl,outcome,[4],inactive
same,outcome,[5],inactive
same,AC50,[9],inconclusive: 46.4 µM
same,AC50,[11],inconclusive: 46.1 µM
same,AC50,[15],inconclusive: 46.1 µM
same,AC50,[8],inconclusive: 0.221 µM
same,outcome,[8],inactive
Cc1cc(SCc2sc(-c3ccc(C(F)(F)F)c(F)c3)nc2C)ccc1OCC(=O)O,AC50,[4],inconclusive: 25 µM
same,AC50,[9],active: 15.2 µM
same,AC50,[10],active: 54.1 µM
same,AC50,[16],active: 35.3 µM
same,AC50,[11],active: 48.2 µM
same,AC50,[15],active: 11.9 µM
same,AC50,[14],active: 70.2 µM
same,AC50,[8],active: 40.6 µM
same,AC50,[12],active: 54.2 µM
C=CCC1=C(C)C(OC(=O)C2C(C=C(C)C)C2(C)C)CC1=O (centres undefined),outcome,[4],inactive
same,AC50,[5],active: 31.2 µM and active: 33.1 µM and inconclusive: 94.5 µM
same,outcome,[5],inactive
same,AC50,[6],active: 84.5 µM and active: 83.5 µM
same,AC50,[13],inconclusive: 52.5 µM
same,AC50,[7],inconclusive: 105 µM
same,outcome,[9],inactive
same,AC50,[16],active: 65.3 µM
same,outcome,[15],inactive
same,outcome,[14],inactive
CCCCCCCCCc1ccc(O)cc1,AC50,[4],inconclusive: 198 nM and inconclusive: 1.59 µM
same,AC50,[5],inconclusive: 50 µM and active: 50 µM
same,AC50,[6],active: 79.1 µM and active: 85.9 µM and inconclusive: 7.33 µM
same,AC50,[7],active: 151 µM
same,AC50,[9],inconclusive: 46.1 µM
same,AC50,[10],inconclusive: 13.5 µM
same,outcome,[10],inactive
same,outcome,[16],inactive
same,AC50,[15],inconclusive: 46.1 µM
same,AC50,[8],inconclusive: 46.1 µM
Oc1ccc(-c2ccccc2)cc1,AC50,[4],active: 17.7 µM
same,AC50,[6],active: 50 µM
same,AC50,[9],inconclusive: 45.6 µM
same,AC50,[16],inconclusive: 46.1 µM
same,outcome,[16],inactive
same,outcome,[15],inactive
same,outcome,[8],inactive
C(=NC1CCCCC1)=NC1CCCCC1,AC50,[4],inconclusive: 0.312 µM
same,outcome,[9],inactive
same,AC50,[16],active: 17.7 µM and active: 30.7 µM
same,AC50,[11],active: 16.2 µM
same,AC50,[15],inconclusive: 46.1 µM and inconclusive: 46.3 µM
same,AC50,[14],inconclusive: 46.3 µM
same,outcome,[14],inactive
same,AC50,[8],inconclusive: 46.3 µM
same,outcome,[12],inactive
O=C1c2ccccc2C(=O)C1C(=O)C(c1ccccc1)c1ccc(Cl)cc1 (centres undefined),AC50,[4],active: 1.12 µM
same,AC50,[6],active: 73.2 µM
same,outcome,[7],inactive
same,AC50,[9],active: 29.4 µM
same,AC50,[10],inconclusive: 66 µM
same,AC50,[16],active: 15.9 µM
same,AC50,[15],active: 37.3 µM
CCOC(=O)CCN(SN(C)C(=O)Oc1cccc2c1OC(C)(C)C2)C(C)C,AC50,[4],inconclusive: 46.3 µM
same,AC50,[10],inconclusive: 77 µM
same,AC50,[15],inconclusive: 46.1 µM
same,outcome,[8],inactive
CCOP(=S)(OCC)Oc1cnc2ccccc2n1,AC50,[4],inconclusive: 25 µM
same,AC50,[9],inconclusive: 46.1 µM
same,outcome,[9],inactive
same,AC50,[10],inconclusive: 46.1 µM
same,AC50,[16],inconclusive: 46.1 µM
same,outcome,[16],inactive
same,outcome,[11],inactive
same,AC50,[15],inconclusive: 9.15 µM and inconclusive: 46.1 µM
same,AC50,[14],inconclusive: 46.1 µM
same,AC50,[12],inconclusive: 46.1 µM
same,outcome,[12],inactive

# A different layout for some results above.
smiles	measurement	setting	value
CC(C)(c1ccccc1)c1ccc(O)c(C(C)(C)c2ccccc2)c1	AC50	[3]	active: 72.2 µM
Cc1cc(SCc2sc(-c3ccc(C(F)(F)F)c(F)c3)nc2C)ccc1OCC(=O)O	AC50	[12]	active: 54.2 µM
C=CCC1=C(C)C(OC(=O)C2C(C=C(C)C)C2(C)C)CC1=O (centres undefined)	AC50	[5]	active: 31.2 µM and active: 33.1 µM and inconclusive: 94.5 µM
C(=NC1CCCCC1)=NC1CCCCC1	AC50	[11]	active: 16.2 µM
CCOC(=O)CCN(SN(C)C(=O)Oc1cccc2c1OC(C)(C)C2)C(C)C	AC50	[10]	inconclusive: 77 µM
same	outcome	[8]	inactive
